Experimental data as given in doi:10.1101/2021.06.03.446896.

The chains behind the UniProt entries cited, without tags or fusion partners. Where a name states a change or a piece, a line headed by the entry shows the natural chain unless it says otherwise. Residues count along the entry.
UniProt O97159, 691-1271: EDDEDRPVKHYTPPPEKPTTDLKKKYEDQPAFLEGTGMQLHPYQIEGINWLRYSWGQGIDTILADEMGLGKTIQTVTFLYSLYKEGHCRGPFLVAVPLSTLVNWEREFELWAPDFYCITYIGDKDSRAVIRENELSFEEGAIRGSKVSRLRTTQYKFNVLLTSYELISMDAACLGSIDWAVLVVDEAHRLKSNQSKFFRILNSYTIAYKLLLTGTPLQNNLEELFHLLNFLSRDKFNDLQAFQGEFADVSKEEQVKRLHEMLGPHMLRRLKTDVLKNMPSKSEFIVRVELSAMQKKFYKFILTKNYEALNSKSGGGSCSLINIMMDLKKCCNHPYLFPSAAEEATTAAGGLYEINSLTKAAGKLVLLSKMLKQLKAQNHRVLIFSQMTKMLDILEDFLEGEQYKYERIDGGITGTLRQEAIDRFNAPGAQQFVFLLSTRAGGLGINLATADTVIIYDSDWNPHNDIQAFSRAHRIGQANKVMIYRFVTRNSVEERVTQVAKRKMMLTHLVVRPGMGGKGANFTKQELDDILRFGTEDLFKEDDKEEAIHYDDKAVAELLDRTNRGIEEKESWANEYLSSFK

Legend:
dMi-2 WT [1] = biological target: dMi-2 WT (UniProt O97159); assay: EMSA; settings: Kd n.d., affinity too low; residues 1-1982
dMi-2 WT [2] = biological target: dMi-2 WT (UniProt O97159); assay: fluorescence polarization; settings: too weak for Kd; residues 1-1982
dMi-2 (377-690) = biological target: T1, dMi-2 (377-690) (UniProt O97159); assay: EMSA; settings: no significant RNA binding; residues 377-690
T1 sequence (looked up): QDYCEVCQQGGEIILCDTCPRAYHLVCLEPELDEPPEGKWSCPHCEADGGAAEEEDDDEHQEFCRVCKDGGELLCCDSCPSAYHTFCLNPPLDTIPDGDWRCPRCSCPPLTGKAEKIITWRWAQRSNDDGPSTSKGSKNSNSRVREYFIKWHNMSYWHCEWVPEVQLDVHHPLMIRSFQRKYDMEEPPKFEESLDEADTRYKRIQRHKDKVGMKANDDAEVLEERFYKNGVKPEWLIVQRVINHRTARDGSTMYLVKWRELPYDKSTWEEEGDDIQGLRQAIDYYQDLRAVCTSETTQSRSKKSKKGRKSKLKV

dMi-2 ΔC = dMi-2 ΔC (UniProt O97159); assay: EMSA
dMi-2 ΔN = dMi-2 ΔN (UniProt O97159); assay: EMSA
dMi-2 (691-1271) = dMi-2 (691-1271) (UniProt O97159); assay: EMSA; settings: no significant RNA binding; residues 691-1271
dMi-2 (1-376) = biological target: T2, dMi-2 (1-376) (UniProt O97159); assay: EMSA; settings: residues 1-376
T2 sequence (looked up): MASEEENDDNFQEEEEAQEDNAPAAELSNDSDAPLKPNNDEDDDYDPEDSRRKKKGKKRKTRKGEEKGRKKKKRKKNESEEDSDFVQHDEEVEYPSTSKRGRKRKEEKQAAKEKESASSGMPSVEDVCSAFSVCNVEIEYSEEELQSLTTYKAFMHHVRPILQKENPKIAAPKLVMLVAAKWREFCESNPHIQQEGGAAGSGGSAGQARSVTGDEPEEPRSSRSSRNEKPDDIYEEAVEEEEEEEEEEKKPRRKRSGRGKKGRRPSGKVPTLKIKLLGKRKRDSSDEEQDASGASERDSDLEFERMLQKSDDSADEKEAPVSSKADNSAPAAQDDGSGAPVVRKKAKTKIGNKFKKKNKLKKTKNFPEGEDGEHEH

dMi-2 Δ376 del1-376 = dMi-2 Δ376 del1-376 (UniProt O97159); assay: EMSA; settings: residues 377-1982

Sequence: AAAAAAAAAAAAAAAAAAAAAAAAAAAAAAAAAAAAAAAA [Poly(A) 40-mer]
- binding result (dMi-2 WT [1]): binds more weakly

Sequence: CACACACACACACACACACACACACACACACACACACACA [FAM-(CA)20 RNA]
- binding result (dMi-2 WT [2]): binds more weakly

Sequence: CCUACGGACUGGACAAGAACCUCAAGGGUGAGCGCAAUGU [Hsp70Aa #6 RNA]
- binding result (dMi-2 (377-690)): no binding
- binding result (dMi-2 ΔC): binds
- binding result (dMi-2 ΔN): binds more weakly
- binding result (dMi-2 (691-1271)): no binding
- binding result (dMi-2 (1-376)): binds
- binding result (dMi-2 Δ376 del1-376): binds more weakly

Sequence: UUUUUUUUUUUUUUUUUUUUUUUUUUUUUUUUUUUUUUUU [Poly(U) 40-mer]
- binding result (dMi-2 WT [1]): binds more weakly

For part of these data: A negative result means that nothing was seen under these conditions. For part of these data: At least one verdict rests on a figure or table, not on a statement of the authors. For part of these data: Protein sequences can lack the tags named with them. For part of these data: Weaker means in comparison with the reference protein, sequence or condition of that experiment. For part of these data: For at least one entry, the source does not settle the construct or the ends of the probe.
